Measured values reported in paper PMC6454061.
Results are given in words; binding and its absence hold for the method and conditions named. In cells and extracts the contact can be indirect. Some binding calls cover weakened binding; strength is not graded here.

The chains behind the UniProt entries cited, without tags or fusion partners.
UniProt Q9NS00: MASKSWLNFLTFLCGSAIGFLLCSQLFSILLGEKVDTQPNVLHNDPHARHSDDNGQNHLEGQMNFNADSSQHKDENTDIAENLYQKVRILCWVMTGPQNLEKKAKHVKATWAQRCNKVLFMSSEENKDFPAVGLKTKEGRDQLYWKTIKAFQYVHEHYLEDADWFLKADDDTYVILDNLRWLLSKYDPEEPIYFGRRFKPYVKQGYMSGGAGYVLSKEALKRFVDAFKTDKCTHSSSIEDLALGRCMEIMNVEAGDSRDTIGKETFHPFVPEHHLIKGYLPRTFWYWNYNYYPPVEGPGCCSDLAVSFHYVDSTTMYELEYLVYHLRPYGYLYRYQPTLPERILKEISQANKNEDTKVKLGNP

What was measured:
Assay in all cases: FRET or BRET; mVenus- and mCherry-tagged enzyme constructs co-transfected in COS-7 cells, fixed with 4% PFA, FRET quantified by high content imaging (Operetta); normoxic cells as the reference (100%); cells also compared after moderate hypoxia (5% O2, 4-24 h) or 3-10 mM DTT; mutants given as percent of wild type
[1] = target: C1GalT-I (UniProt Q9NS00)
[2] = target: T1, C2GNT-1 (UniProt Q02742)
T1 sequence: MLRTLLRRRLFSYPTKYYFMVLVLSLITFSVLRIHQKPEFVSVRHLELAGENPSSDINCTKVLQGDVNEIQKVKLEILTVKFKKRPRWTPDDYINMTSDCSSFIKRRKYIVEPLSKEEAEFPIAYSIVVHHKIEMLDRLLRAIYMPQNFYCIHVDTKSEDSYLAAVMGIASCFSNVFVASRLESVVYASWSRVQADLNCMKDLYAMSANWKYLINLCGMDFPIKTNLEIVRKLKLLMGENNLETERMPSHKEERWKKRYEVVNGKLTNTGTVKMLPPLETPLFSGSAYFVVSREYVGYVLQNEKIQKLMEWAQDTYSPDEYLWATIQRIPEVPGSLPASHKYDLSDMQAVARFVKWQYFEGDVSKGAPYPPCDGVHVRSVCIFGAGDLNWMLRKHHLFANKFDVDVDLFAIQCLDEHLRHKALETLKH

[3] = target: T2, C3GNT-1 (UniProt Q6ZMB0)
T2 sequence: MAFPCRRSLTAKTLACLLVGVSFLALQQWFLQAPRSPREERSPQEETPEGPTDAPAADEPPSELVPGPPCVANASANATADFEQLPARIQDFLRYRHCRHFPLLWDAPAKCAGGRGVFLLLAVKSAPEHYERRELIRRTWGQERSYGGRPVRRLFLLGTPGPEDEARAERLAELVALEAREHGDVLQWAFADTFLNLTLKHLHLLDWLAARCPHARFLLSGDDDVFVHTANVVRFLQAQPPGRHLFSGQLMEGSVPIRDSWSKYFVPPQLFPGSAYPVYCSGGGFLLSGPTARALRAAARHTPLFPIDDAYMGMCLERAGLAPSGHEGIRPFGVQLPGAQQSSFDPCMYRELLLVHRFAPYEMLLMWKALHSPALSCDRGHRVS

Measured: binding

B1: ppGalNAcT-6 (enzyme, UniProt Q8NCL4 1-622)
chain: MRLLRRRHMPLRLAMVGCAFVLFLFLLHRDVSSREEATEKPWLKSLVSRKDHVLDLMLEAMNNLRDSMPKLQIRAPEAQQTLFSINQSCLPGFYTPAELKPFWERPPQDPNAPGADGKAFQKSKWTPLETQEKEEGYKKHCFNAFASDRISLQRSLGPDTRPPECVDQKFRRCPPLATTSVIIVFHNEAWSTLLRTVYSVLHTTPAILLKEIILVDDASTEEHLKEKLEQYVKQLQVVRVVRQEERKGLITARLLGASVAQAEVLTFLDAHCECFHGWLEPLLARIAEDKTVVVSPDIVTIDLNTFEFAKPVQRGRVHSRGNFDWSLTFGWETLPPHEKQRRKDETYPIKSPTFAGGLFSISKSYFEHIGTYDNQMEIWGGENVEMSFRVWQCGGQLEIIPCSVVGHVFRTKSPHTFPKGTSVIARNQVRLAEVWMDSYKKIFYRRNLQAAKMAQEKSFGDISERLQLREQLHCHNFSWYLHNVYPEMFVPDLTPTFYGAIKNLGTNQCLDVGENNRGGKPLIMYSCHGLGGNQYFEYTTQRDLRHNIAKQLCLHVSKGALGLGSCHFTGKNSQVPKDEEWELAQDQLIRNSGSGTCLTSQDKKPAMAPCNPSDPHQLWLFV
binds: [1] | [2] | [3]
